According to US9821080B2 (priority 2011, dated 2017):

Assay: general procedure: Boc solid-phase peptide synthesis; NHCH2CH2SCH2-Resin (cysteamine-linked resin; PR II loading 1.7 mmol NH2/g); TBTU/HOBt (oxybenzotriazol esters)
Conditions: conjugation step

(Suc-Tyr)4-(Lys)2-Lys-NHCH2CH2S-Mal-βAla-CMG2-Ad-DOPE
conjugation yield: 76%

(Suc-Tyr)8-(Lys)4-(Lys)2-Lys-NHCH2CH2S-Mal-βAla-CMG2-Ad-DOPE
conjugation yield: 88%
